In the supplement of paper PMC7877785:
± gives the uncertainty stated by the source. Many entries were measured with a wide error.

Experiment: self-splicing fitness, log relative to wild type (ln ratio); higher = more splicing; Tetrahymena group I intron in knt gene, E. coli kanamycin selection, DiMSum; sequences stand for … in CUCUCU…GGAGGGAAAAGUUAUCAGGCAUGCACCUGGUAGCUAGUCUUUAAACCAAUAGAUUGCAUCGGUUUAAAAGGCAAGACCGUCAAAUUGCGGGAAAGGGGUCAACAGCCGUUCAGUACCAAGUCUCAGGGGAAACUUUGAGAUGGCCUUGCAAAGGGUAUGGUAAUAAGCUGACGGACAUGGUCCUAACCACGCAGCCAAGUCCUAAGUCAACAGAUCUUCUGUUGAUAUGGAUGCAGUUCACAGACUAAAUGUCGGUCGGGGAAGAUGUAUUCUUCUCAUAAGAUAUAGUCGGACCUCUCCUUAAUGGGAGCUAGCGGAUGAAGUGAUGCAACACUGGAGCCGCUGGGAACUAAUUUGUAUGCGAAAGUAUAUUGAUUAGUUUUGGAGUACUCGUGGUCG
Outline: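 DiMSum derived fitness as the error-weighted combination of fold changes across replicates, kanamycin versus no kanamycin, normalised to wild type. E. coli BL21(DE3) held the library, which randomised all eight P1ex-region intron nucleotides within the knt kanamycin-resistance gene on pET-22b(+). Six replicate transformations grew overnight at 37°C or 30°C on LB agar with or without 25 μg/mL kanamycin, also containing 100 μg/mL carbenicillin, 50 μM IPTG and 0.2% rhamnose, and pooled colonies were amplicon-sequenced on an Illumina HiSeq 2500.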

Row | Sequence | self-splicing fitness (ln) (37 °C) | self-splicing fitness (ln) (30 °C)
1 | CUGGAGCAAUAUUACGGCGA | -3.07 ± 1 | –
2 | GUUAAGCAAUAUUACGGCUC | -0.6 ± 0.21 | 0.46 ± 0.2
3 | UCAGAGCAAUAUUACGAAGA | – | -1.36 ± 0.74
4 | GCAGAGCAAUAUUACGAAGA | -2.03 ± 0.5 | –
5 | CUGGAGCAAUAUUACGCAAA | -1.13 ± 0.63 | –
6 | CAUGAGCAAUAUUACGAAGA | – | -3.49 ± 0.52
7 | GUGUAGCAAUAUUACGCCCC | -0.924 ± 0.63 | –
8 | AUUGAGCAAUAUUACGGCCC | – | -3.21 ± 1.1
9 | AGGGAGCAAUAUUACGCAGA | – | -1.77 ± 0.68
10 | CAAGAGCAAUAUUACGUUCC | -1.65 ± 0.54 | –
11 | AUCUAGCAAUAUUACGUCGG | -2.72 ± 0.27 | -3.23 ± 0.2
12 | CUGAAGCAAUAUUACGAAAU | -2.38 ± 0.25 | -3.78 ± 0.27
13 | CGCUAGCAAUAUUACGCGCG | -2.98 ± 1.1 | -4.39 ± 0.73
14 | UCAAAGCAAUAUUACGGAAC | -2.49 ± 0.5 | –
15 | AAGGAGCAAUAUUACGAGAU | – | -3.4 ± 0.63
16 | GCGAAGCAAUAUUACGCAGU | -2.39 ± 1.1 | -3.19 ± 1.2
17 | UCAGAGCAAUAUUACGAUCC | -1.15 ± 0.63 | –
18 | GGGGAGCAAUAUUACGGAUA | -1.79 ± 0.82 | -2.25 ± 0.56
19 | CCCUAGCAAUAUUACGCUUG | -2.18 ± 0.28 | -3.94 ± 0.42
20 | CCUUAGCAAUAUUACGCGCC | -2.79 ± 0.76 | –
21 | GGUUAGCAAUAUUACGCUUC | -1.95 ± 0.57 | -3.25 ± 0.77
22 | AAGGAGCAAUAUUACGCCUU | -2.76 ± 1.1 | –
23 | GAGUAGCAAUAUUACGAGGC | – | -2.62 ± 1.1
24 | CAUUAGCAAUAUUACGUUCC | -1.9 ± 0.64 | –

Copied from the list:
In self-splicing fitness (ln) (30 °C), CAUGAGCAAUAUUACGAAGA is listed with -3.49 ± 0.52
In self-splicing fitness (ln) (30 °C), AUUGAGCAAUAUUACGGCCC is listed with -3.21 ± 1.1

Following part

Row | Sequence | self-splicing fitness (ln) (37 °C) | self-splicing fitness (ln) (30 °C)
25 | UCGCAGCAAUAUUACGGUGU | – | -4.31 ± 0.72
26 | GAUGAGCAAUAUUACGCUAG | – | -3.92 ± 0.61
27 | GCUGAGCAAUAUUACGGCCU | -1.64 ± 0.83 | –
28 | GCAGAGCAAUAUUACGCCCC | -0.0848 ± 1.2 | –
29 | CCUUAGCAAUAUUACGCCAC | -2.72 ± 1.1 | -4.2 ± 1
30 | UGGUAGCAAUAUUACGCAUC | – | -3.09 ± 0.53
31 | UAUAAGCAAUAUUACGGCCG | 0.0314 ± 0.26 | 0.336 ± 0.23
32 | GGACAGCAAUAUUACGGUUA | 0.525 ± 0.11 | -0.28 ± 0.097
33 | CUCGAGCAAUAUUACGCCAG | -1.82 ± 0.52 | -3.33 ± 0.54
34 | GUGUAGCAAUAUUACGCGGA | – | -1.73 ± 0.56
35 | UGCAAGCAAUAUUACGGCAC | -3.28 ± 0.33 | -3.59 ± 0.4
36 | GACUAGCAAUAUUACGGCAC | 0.581 ± 0.16 | -0.648 ± 0.14
37 | GCGUAGCAAUAUUACGAGCG | -1.62 ± 0.17 | -0.887 ± 0.15
38 | UAUAAGCAAUAUUACGGCCC | – | -1.81 ± 0.78
39 | GGUUAGCAAUAUUACGAGCC | 0.171 ± 0.92 | -1.96 ± 1.2
40 | GUCUAGCAAUAUUACGGCCG | – | -3.77 ± 1
41 | ACUGAGCAAUAUUACGCGCC | 0.000402 ± 1.2 | –
42 | GUUGAGCAAUAUUACGGCCG | -0.44 ± 1.4 | –
43 | AAAGAGCAAUAUUACGAGAA | -1.62 ± 1.1 | –
44 | UCGUAGCAAUAUUACGCCCC | -1.42 ± 0.56 | -2.28 ± 0.56
45 | UGCGAGCAAUAUUACGCGUC | -1.18 ± 0.92 | –
46 | AUGGAGCAAUAUUACGCGGC | -0.19 ± 0.92 | –
47 | AGUCAGCAAUAUUACGGGGC | – | -4.04 ± 0.72
48 | UUAGAGCAAUAUUACGCCCC | -0.869 ± 0.78 | -2.02 ± 1.2

Row | Sequence | self-splicing fitness (ln) (37 °C) | self-splicing fitness (ln) (30 °C)
49 | UUUGAGCAAUAUUACGCGAC | -1.97 ± 0.5 | –
50 | CCAUAGCAAUAUUACGAAGC | -2.39 ± 0.5 | –
51 | UUUGAGCAAUAUUACGCUGU | -2.1 ± 0.58 | –
52 | UACGAGCAAUAUUACGCCCC | -1.16 ± 0.9 | –
53 | GUAUAGCAAUAUUACGGGAG | – | -3.39 ± 0.55
54 | GCUCAGCAAUAUUACGUGUG | -0.824 ± 0.074 | -1.26 ± 0.063
55 | CCGAAGCAAUAUUACGUUAA | – | -4.68 ± 1
56 | GCGGAGCAAUAUUACGACGC | – | -4.41 ± 0.72
57 | GCGAAGCAAUAUUACGAUGC | -3.06 ± 0.61 | -3.55 ± 0.76
58 | CUAUAGCAAUAUUACGCAAG | -2.22 ± 0.18 | -3.11 ± 0.2
59 | UCUCAGCAAUAUUACGCGCU | – | -3.23 ± 1
60 | UUGGAGCAAUAUUACGCUGC | -2.34 ± 0.58 | -1.96 ± 1.2
61 | CGGUAGCAAUAUUACGACUC | 1.23 ± 0.43 | -1.01 ± 0.32
62 | GGGAAGCAAUAUUACGAGAA | -1.78 ± 0.36 | -2.16 ± 0.48
63 | AGAGAGCAAUAUUACGAGAA | -1.54 ± 0.71 | -1.55 ± 1.2
64 | CGUGAGCAAUAUUACGCUCU | -3.33 ± 1 | –
65 | GUCGAGCAAUAUUACGAACG | – | -4.58 ± 0.59
66 | AAUGAGCAAUAUUACGCUGG | -2.08 ± 0.25 | -3.22 ± 0.2
67 | CGUUAGCAAUAUUACGACCC | -1.1 ± 0.75 | –
68 | UUCGAGCAAUAUUACGGCCC | -0.433 ± 0.67 | –
69 | GUGGAGCAAUAUUACGACUA | – | -1.03 ± 0.71
70 | CUCUAGCAAUAUUACGCCCG | – | -1.89 ± 0.55
71 | UUCUAGCAAUAUUACGCUUU | -1.82 ± 0.22 | -3.89 ± 0.26
72 | UGUAAGCAAUAUUACGGAGC | -2.2 ± 0.54 | –

Copied from above, entries 64 to 65
Row | Sequence | self-splicing fitness (ln) (37 °C) | self-splicing fitness (ln) (30 °C)
64 | CGUGAGCAAUAUUACGCUCU | -3.33 ± 1 | –
65 | GUCGAGCAAUAUUACGAACG | – | -4.58 ± 0.59

The list goes on.

Row | Sequence | self-splicing fitness (ln) (37 °C) | self-splicing fitness (ln) (30 °C)
73 | AGCGAGCAAUAUUACGGUAG | – | -4.58 ± 0.51
74 | CGGGAGCAAUAUUACGAGUA | -2.52 ± 0.55 | –
75 | AAUUAGCAAUAUUACGCCAC | – | -1.15 ± 0.76
76 | UCAAAGCAAUAUUACGCGAU | – | -4.8 ± 1
77 | UAAGAGCAAUAUUACGGAGA | -1.26 ± 0.57 | -1.92 ± 0.62
78 | GGUGAGCAAUAUUACGGAGG | -2.59 ± 0.55 | –
79 | CUAUAGCAAUAUUACGAGAA | -2.02 ± 0.51 | -2.12 ± 0.54
80 | CUCGAGCAAUAUUACGCCCU | -2.07 ± 1.1 | -2.97 ± 0.63
81 | UGUCAGCAAUAUUACGCACA | -0.355 ± 0.093 | -0.467 ± 0.083
82 | UUUGAGCAAUAUUACGCACU | -0.729 ± 0.65 | –
83 | CAGGAGCAAUAUUACGAAAC | -2.07 ± 0.79 | –
84 | CUGGAGCAAUAUUACGCCCA | – | -4.39 ± 0.73
85 | UCUGAGCAAUAUUACGUCCG | -2.06 ± 0.5 | –
86 | ACAUAGCAAUAUUACGCCUC | – | -3.24 ± 0.54
87 | UAGGAGCAAUAUUACGGAAU | -2.51 ± 0.33 | -4.06 ± 0.36
88 | CGAGAGCAAUAUUACGCUUG | -3.14 ± 0.34 | -3.51 ± 0.33
89 | UCGGAGCAAUAUUACGCCAA | -1.78 ± 0.58 | –
90 | GCUGAGCAAUAUUACGCUAC | – | -2.59 ± 0.63
91 | AAGGAGCAAUAUUACGAACC | 1.27 ± 0.77 | -2.65 ± 1.1
92 | CGUAAGCAAUAUUACGUGAC | -2.33 ± 0.18 | -3.04 ± 0.15
93 | GGCCAGCAAUAUUACGUCAC | -2.47 ± 0.76 | –
94 | GUUGAGCAAUAUUACGCAGU | – | -3.35 ± 1
95 | CUGCAGCAAUAUUACGAAGU | -3.86 ± 0.59 | –
96 | AAGUAGCAAUAUUACGAGAC | -2.03 ± 1.1 | –

Exported tab-delimited: entries from further up
Row	Sequence	self-splicing fitness (ln) (37 °C)	self-splicing fitness (ln) (30 °C)
85	UCUGAGCAAUAUUACGUCCG	-2.06 ± 0.5	–
86	ACAUAGCAAUAUUACGCCUC	–	-3.24 ± 0.54

Further records:

Row | Sequence | self-splicing fitness (ln) (37 °C) | self-splicing fitness (ln) (30 °C)
97 | UAUAAGCAAUAUUACGGUCC | -2.04 ± 0.51 | –
98 | UCGGAGCAAUAUUACGCGAU | -2.42 ± 0.23 | -3.51 ± 0.19
99 | CUCGAGCAAUAUUACGGCUC | -2.25 ± 0.55 | -4.61 ± 0.72
100 | ACGGAGCAAUAUUACGCAAC | – | -3.17 ± 0.54
101 | AGCGAGCAAUAUUACGAGAC | -3.4 ± 0.73 | -3.31 ± 0.6
102 | GCGGAGCAAUAUUACGUGAC | – | -0.953 ± 0.55
103 | CAAUAGCAAUAUUACGUUGG | -1.3 ± 0.11 | -1.9 ± 0.099
104 | ACAGAGCAAUAUUACGCUAG | -2.61 ± 0.18 | -3.28 ± 0.19
105 | AGAGAGCAAUAUUACGCGUU | -1.51 ± 0.84 | –
106 | GCGUAGCAAUAUUACGAUUC | -0.0224 ± 0.11 | -0.141 ± 0.098
107 | CUCGAGCAAUAUUACGUAGC | -2.19 ± 0.27 | -4.8 ± 0.72
108 | CUUAAGCAAUAUUACGGUCC | -1.95 ± 0.52 | –
109 | UUUGAGCAAUAUUACGAUAC | -1.61 ± 0.6 | –
110 | GACUAGCAAUAUUACGGGCC | – | -3.41 ± 0.58
111 | CCCGAGCAAUAUUACGUGAC | – | -4.48 ± 0.51
112 | GGCGAGCAAUAUUACGUAGG | -1.98 ± 0.65 | -3.38 ± 0.62
113 | GCUGAGCAAUAUUACGCGCA | -0.9 ± 0.61 | –
114 | CCAAAGCAAUAUUACGGGUC | -3.1 ± 0.22 | -4.39 ± 0.23
115 | CUAGAGCAAUAUUACGCCCA | -0.681 ± 0.51 | –
116 | CAUUAGCAAUAUUACGCAGC | -3.08 ± 0.74 | -4.26 ± 0.73
117 | UCUCAGCAAUAUUACGAAAU | – | -4.76 ± 1
118 | CAGUAGCAAUAUUACGAAAC | – | -3.21 ± 0.56
119 | AGAGAGCAAUAUUACGGGCC | -2.28 ± 0.78 | -1.85 ± 0.65
120 | CCGUAGCAAUAUUACGAUUC | -1.81 ± 0.55 | -4.4 ± 0.72
